Paper PMC10606488, “Usnic Acid Derivatives Inhibit DNA Repair Enzymes Tyrosyl-DNA Phosphodiesterases 1 and 2 and Act as Potential Anticancer Agents” (Genes, 2023)

These compounds were tested on HEK293FT Tdp2−/− cells (assay: Effect of compounds on the cytotoxicity of etoposide, Tdp2 knockout cells). Conditions: 10 μM compound; points 0.4, 1.6 and 6 μM etoposide compared; Mann–Whitney test, p = 0.05.
Format: cell-based, human
With `COc1ccc(C=NNc2nc(-c3c(O)c(C)c(O)c4c3OC3=CC(O)=C(C(C)=O)C(=O)C34C)cs2)cc1CN1CCN(c2ccc(F)cc2)CC1` (single isomer, unassigned; (-)) [(−)-11h] the “etoposide concentrations at which metabolic activity of WT and Tdp2−/− cells differs significantly” value was “at points of 1.6 and 6 μM”.
For `CC(=O)C1=C(O)C=C2Oc3c(-c4csc(NN=Cc5c[nH]c6ccccc56)n4)c(O)c(C)c(O)c3C2(C)C1=O` (single isomer, unassigned; (-)) [(−)-11d], the “etoposide concentrations at which metabolic activity of WT and Tdp2−/− cells differs significantly” value was “significant at all three points”.
For `CC(=O)C1=C(O)C=C2Oc3c(-c4csc(NN=Cc5ccc[nH]5)n4)c(O)c(C)c(O)c3C2(C)C1=O` (single isomer, unassigned; (-)) [(−)-11a], the “etoposide concentrations at which metabolic activity of WT and Tdp2−/− cells differs significantly” value was “at 1.6 μM”.
